PubChem BioAssay AID1259425 | University of Nebraska Medical Center – 2018

Aim: 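Compare each knockdown with KSR1 silencing using changes in marker transcripts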 (primary screen)
System: HCT116 human colon cancer cells
Reagent: siRNA pool against human genes, 50 nM siRNA
Read-out: 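After 50 nM siRNA pool, branched-DNA assay measures six marker transcripts per well, minus blank, normalised to the geometric mean of two housekeeping transcripts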
Direction: BNIP3L mRNA: higher = more BNIP3L transcript after knockdown; NDRG1 mRNA: higher = more NDRG1 transcript after knockdown; BNIP3 mRNA: higher = more BNIP3 transcript after knockdown; ALDOC mRNA: higher = more ALDOC transcript after knockdown; ACSL5 mRNA: higher = more ACSL5 transcript after knockdown
The whole screen tested about 14,000 reagents; below is a random part of them. Reagent sequences are not shown. The record does not give: the time to read-out.

| gene | BNIP3L mRNA, set 1 | NDRG1 mRNA, set 1 | BNIP3 mRNA, set 1 | ALDOC mRNA, set 1 | ACSL5 mRNA, set 1 |
| --- | --- | --- | --- | --- | --- |
| MPHOSPH9 (GeneID 10198) | 0.156 | 0.204 | 0.439 | 0.0336 | 0.124 |
| DDHD1 (GeneID 80821) | 0.2 | 0.193 | 0.397 | 0.0742 | 0.282 |
| ZNF124 (GeneID 7678) | 0.0707 | 0.0681 | 0.24 | 0.0051 | 0.184 |
| OR11A1 (GeneID 26531) | 0.292 | 0.255 | 0.644 | 0.0434 | 0.116 |
| DSCR8 (GeneID 84677) | 0.129 | 0.181 | 0.286 | 0.0597 | 0.173 |
| PCED1A (GeneID 64773) | 0.117 | 0.13 | 0.38 | 0.0255 | 0.164 |
| COL4A6 (GeneID 1288) | 0.0747 | 0.105 | 0.331 | 0.0301 | 0.087 |
| KRT37 (GeneID 8688) | 0.166 | 0.42 | 0.368 | 0.0139 | 0.118 |
| LAMTOR3 (GeneID 8649) | 0.0896 | 0.196 | 0.332 | 0.0137 | 0.0679 |
| MTHFS (GeneID 10588) | 0.175 | 0.622 | 0.312 | 0.0293 | 0.196 |
| LAMB1 (GeneID 3912) | 0.155 | 0.142 | 0.199 | 0.0443 | 0.0974 |
| GPR173 (GeneID 54328) | 0.21 | 0.319 | 0.335 | 0.0945 | 0.2 |
| TUBB1 (GeneID 81027) | 0.0593 | 0.167 | 0.323 | 0.0143 | 0.21 |
| PLOD3 (GeneID 8985) | 0.267 | 1.79 | 0.594 | 0.0812 | 0.543 |
| ST3GAL3 (GeneID 6487) | 0.25 | 0.668 | 0.277 | 0.0318 | 0.237 |

Continued; the last 4 above are carried over.
| gene | BNIP3L mRNA, set 1 | NDRG1 mRNA, set 1 | BNIP3 mRNA, set 1 | ALDOC mRNA, set 1 | ACSL5 mRNA, set 1 |
| --- | --- | --- | --- | --- | --- |
| GPR173 (GeneID 54328) | 0.21 | 0.319 | 0.335 | 0.0945 | 0.2 |
| TUBB1 (GeneID 81027) | 0.0593 | 0.167 | 0.323 | 0.0143 | 0.21 |
| PLOD3 (GeneID 8985) | 0.267 | 1.79 | 0.594 | 0.0812 | 0.543 |
| ST3GAL3 (GeneID 6487) | 0.25 | 0.668 | 0.277 | 0.0318 | 0.237 |
| TIMM13 (GeneID 26517) | 0.318 | 0.388 | 0.53 | 0.0414 | 0.331 |
| TRPC3 (GeneID 7222) | 0.0469 | 0.194 | 0.235 | 0.00956 | 0.0795 |
| ANK1 (GeneID 286) | 0.0814 | 0.208 | 0.252 | 0.0121 | 0.116 |
| CTNND2 (GeneID 1501) | 0.186 | 0.228 | 0.537 | 0.0341 | 0.14 |
| SNRPD3 (GeneID 6634) | 0.112 | 0.37 | 0.185 | 0.0375 | 0.0394 |
| STGC3 (retired record) (GeneID 474171) | 0.0444 | 0.213 | 0.381 | 0.0139 | 0.0751 |
| ROCK1 (GeneID 6093) | 0.235 | 0.0589 | 0.388 | 0.0102 | 0.171 |
| UBL3 (GeneID 5412) | 0.0867 | 0.0921 | 0.261 | 0.0317 | 0.0525 |
| DLG2 (GeneID 1740) | 0.105 | 0.176 | 0.343 | 0.0122 | 0.112 |
| CLCN5 (GeneID 1184) | 0.0564 | 0.055 | 0.285 | 0.0181 | 0.103 |
| ERCC5 (GeneID 2073) | 0.0734 | 0.18 | 0.232 | 0.0204 | 0.123 |
| SERGEF (GeneID 26297) | 0.191 | 0.225 | 0.344 | 0.0381 | 0.166 |
| HMGB1 (GeneID 3146) | 0.145 | 0.14 | 0.29 | 0.034 | 0.245 |
| CACNA1H (GeneID 8912) | 0.159 | 0.272 | 0.194 | 0.0203 | 0.14 |
| CFD (GeneID 1675) | 0.123 | 0.18 | 0.118 | 0.0182 | 0.0923 |
| COPG2 (GeneID 26958) | 0.051 | 0.113 | 0.25 | 0.00699 | 0.156 |
| COQ6 (GeneID 51004) | 0.116 | 0.168 | 0.377 | 0.0135 | 0.367 |
| ANAPC13 (GeneID 25847) | 0.127 | 0.327 | 0.553 | 0.0378 | 0.128 |
| BLMH (GeneID 642) | 0.126 | 0.153 | 0.266 | 0.0195 | 0.197 |
